Amino acid sequences for entries named in this document (tags omitted).
UniProt Q13263: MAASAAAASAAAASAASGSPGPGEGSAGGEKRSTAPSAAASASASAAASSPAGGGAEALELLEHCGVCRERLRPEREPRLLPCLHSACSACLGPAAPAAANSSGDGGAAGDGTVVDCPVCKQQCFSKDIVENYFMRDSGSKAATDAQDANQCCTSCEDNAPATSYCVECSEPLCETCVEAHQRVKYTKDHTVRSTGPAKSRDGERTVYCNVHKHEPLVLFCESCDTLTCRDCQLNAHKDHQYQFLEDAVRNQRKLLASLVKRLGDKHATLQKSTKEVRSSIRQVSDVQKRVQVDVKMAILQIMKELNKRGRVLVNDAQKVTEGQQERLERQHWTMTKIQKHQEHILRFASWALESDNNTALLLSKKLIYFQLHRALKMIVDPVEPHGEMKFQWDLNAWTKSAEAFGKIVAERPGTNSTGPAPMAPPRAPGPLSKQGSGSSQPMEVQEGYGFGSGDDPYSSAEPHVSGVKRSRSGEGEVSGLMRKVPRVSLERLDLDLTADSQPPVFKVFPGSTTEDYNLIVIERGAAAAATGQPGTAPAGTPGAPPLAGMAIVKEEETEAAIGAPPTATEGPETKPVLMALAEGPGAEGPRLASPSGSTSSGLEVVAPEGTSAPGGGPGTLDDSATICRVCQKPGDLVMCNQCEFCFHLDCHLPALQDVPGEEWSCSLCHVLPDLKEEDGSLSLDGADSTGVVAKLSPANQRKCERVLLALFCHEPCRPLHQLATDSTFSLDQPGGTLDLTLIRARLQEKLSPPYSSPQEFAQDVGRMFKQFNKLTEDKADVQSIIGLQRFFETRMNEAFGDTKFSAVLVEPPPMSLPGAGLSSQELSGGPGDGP

In PMC7984809:

Target: T1, GFP-TRDMT1 (UniProt O14717)
T1 sequence: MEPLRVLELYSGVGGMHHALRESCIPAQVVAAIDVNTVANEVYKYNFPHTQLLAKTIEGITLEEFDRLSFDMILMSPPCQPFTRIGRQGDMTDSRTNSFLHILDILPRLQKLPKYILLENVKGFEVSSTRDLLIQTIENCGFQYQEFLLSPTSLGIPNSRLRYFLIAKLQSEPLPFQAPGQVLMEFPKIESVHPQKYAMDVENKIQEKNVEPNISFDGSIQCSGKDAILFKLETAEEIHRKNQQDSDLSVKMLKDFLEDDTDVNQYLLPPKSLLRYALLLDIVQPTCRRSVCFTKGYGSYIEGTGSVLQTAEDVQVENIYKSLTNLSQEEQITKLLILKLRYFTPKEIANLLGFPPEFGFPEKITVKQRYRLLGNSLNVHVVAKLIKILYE
Assay: affinity purification with mass spectrometry; GFP-TRDMT1 captured from whole cell lysates of stably expressing Flp-in 293 cells by anti-GFP nanobody on magnetic dynabeads; cells with or without 2 mM H2O2 for 3 h; 20 mM HEPES, 0.5% TritonX-100, 150 or 300 mM NaCl; wild-type 293 cells as control; LC/MS

binding: binds
Substance: TRIM28 (from UniProt Q13263 1-835)

These are yes or no findings as the source states them, for the method shown. In cells and extracts the contact can be indirect. Here binding means that the protein was enriched with, or labelled near, the bait; the list need not be complete. Tags and fused reporters may be left off the sequences shown.
